The record followed here is PubChem BioAssay AID493014 (National Center for Advancing Translational Sciences (NCATS), 2011).

A short description of this test: qHTS Assay to Find Inhibitors of Chronic Active B-Cell Receptor Signaling. The note with it: ABC-DLBCL IkBa-CBG/CBR reporter, luminescence ratio (green luciferase fused to IkBa over red control in TMD8 lymphoma cells), 4 h. An outline of the steps:
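TMD8 ABC-DLBCL cells carrying doxycycline-inducible green luciferase fused to IkappaBalpha plus unfused red luciferase were exposed to compounds (up to 46 uM) for 4 hrs at 37C. Activity came from the overlap-corrected green/red luminescence ratio.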

Setting [1] is: measured here: CBR red luminescence, cell number.
The mark [2] stands for this setting: measured here: IkBa-CBG green luminescence.

Structures are written as SMILES. The list shows a part of the results. Shown are side measurements of this screen, not its main read-out; they come without a call. The list favours compounds with an active or inconclusive main result. The note in brackets gives the kind of curve behind each potency; many fits are weak.

The term AC50 denotes the midpoint of the concentration-response curve, whichever way the signal moves.

Turning to `Cc1ccccc1OCC(=O)Nc1ccc(N2CCN(C(=O)C(C)C)CC2)c(Cl)c1`, the AC50 under setting [1] is 17.8 µM [falling, partial curve, poor fit]. On the same count and under the same terms, for `CCOC(=O)C1CCN(c2ncnc3c2c(-c2ccccc2)cn3-c2ccccc2)CC1` the value was 3.55 µM [rising, single point]; for `COC(=O)C(C)SC1=N/C(=C/c2ccc(-n3cncn3)cc2)C(=O)N1` (stereo not drawn), 35.5 µM [falling, single point]; for `CN(C)C(=C(C#N)C#N)N1CCN(c2ccc(Cl)cc2)CC1`, 2.24 µM [rising, full curve, poor fit]. Same read-out and setting: next, `CCN(CC)Cc1c(O)ccc2c([N+](=O)[O-])c(C)n(-c3ccc(OC)cc3)c12`: 18.4 µM [falling, single point]. Still for that read-out and setting: for `COc1ccc(C2C(C(C)=O)=C(O)C(=O)N2c2ccc(Br)cc2)cc1` (stereo not drawn) the value was 3.55 µM [rising, partial curve, poor fit]. As for `NC(=O)[C@@H]1CC2(CC(c3cccc(NC(=O)[C@H]4CCC(=O)N4)c3)=NO2)CN1C(=O)c1ccc(Cl)cc1` (stereo partly drawn), the AC50 under setting [1] was 5.62 µM [falling, single point]. The same measure, in the same setting: next, `COc1ccc(-c2cc(C(=O)N3CCN(c4ccccc4OC)CC3)no2)cc1OC`: 28.2 µM [falling, single point]; `COc1ccc(C(=O)NC(=S)Nc2cccnc2)cc1OC`: 5.62 µM [rising, single point]. For `O=c1c(Cl)c(Cl)cnn1Cc1nnc(-c2ccc(Cl)cc2)o1`, the AC50 under setting [1] was 8.91 µM [falling, partial curve, poor fit] and the AC50 under setting [2] was 11.2 µM [rising, partial curve, poor fit].

Consider `Cc1cc(C)c(S(=O)(=O)NCCc2ccncc2)c(C)c1`, for which, under setting [1], the AC50 was 3.55 µM [rising, single point]. `COc1cccc(C(=O)N/N=C/C(Br)=C/c2ccccc2)c1`: the AC50 under setting [1] is 23.1 µM [falling, partial curve] and the half-maximal activity concentration (AC50) under setting [2] was 29.1 µM [falling, single point]. For the compound `COc1cc(OC)c(OC)cc1/C=N/N(C)c1ccccc1`, the AC50 under setting [1] is 5.8 µM [rising, partial curve, poor fit]. Consider `COc1ccc(OC)c2c1C(=O)C(Cl)=C(Cl)C2=O`, for which the AC50 is 3.98 µM [falling, full curve] under setting [1] and 2.24 µM [rising, full curve, poor fit] under setting [2]. Regarding `O=C(CCCn1cnc([N+](=O)[O-])n1)Nc1cccc2ccccc12`, under setting [1], the AC50 was 2.82 µM [falling, partial curve, poor fit]. For the compound `Fc1ccc(OCCOCCOc2cccc3[nH]ccc23)cc1`, the half-maximal activity concentration (AC50) under setting [1] was 12.6 µM [rising, partial curve, poor fit]. For `Cc1ccc(NC(=S)N(Cc2ccco2)C(C)c2cccs2)c(Cl)c1` (stereo not drawn), the AC50 under setting [1] is 35.5 µM [falling, single point].

With `O=C(Cc1cccs1)Nc1ccc([N+](=O)[O-])cc1`, under setting [1], the AC50 is 0.447 µM [rising, partial curve, poor fit].

In the case of `O=S(=O)(c1cccs1)N1CCN(c2ccnc3cc(Cl)ccc23)CC1`, the AC50 under setting [1] is 17.8 µM [falling, single point]. On the same count and under the same terms, next, `CCOC(=O)N1CCC(N2CCCC(C(=O)c3cccc(OC(C)C)c3)C2)CC1` (stereo not drawn): 11.2 µM [falling, partial curve, poor fit]. For `C#CCN(C)CC/C=C1\c2ccccc2CSc2ccccc21`, under setting [1], the AC50 is 29.1 µM [falling, single point]. On the same count and under the same terms, for `C/C(=N\NC(=O)C1CCCC1)c1ccc(Cl)cc1` the value was 0.794 µM [rising, partial curve, poor fit]. Still for that read-out and setting: next, `CCCCCC(=O)Nc1cccc2ccccc12`: 2.51 µM [falling, full curve, poor fit]; `COc1ccc(OCCSc2ncccn2)cc1`: 6.51 µM [rising, partial curve, poor fit].

Regarding `Cc1c(C(=O)Nc2cccc(Cl)c2)oc2ccc(S(=O)(=O)N3CCCCCC3)cc12`, under setting [2], the half-maximal activity concentration (AC50) was 0.631 µM [rising, full curve, poor fit].

As for `Cc1ccc(C(OCC(O)CNC(CO)C(O)c2ccc([N+](=O)[O-])cc2)c2ccccc2)cc1` (stereo not drawn), the AC50 under setting [1] is 7.08 µM [falling, partial curve, poor fit] and the half-maximal activity concentration (AC50) under setting [2] was 14.1 µM [rising, partial curve, poor fit].

Take `CC(=O)Nc1ccc(Nc2nc(C)c([N+](=O)[O-])c(Nc3ccccc3)n2)cc1`: the AC50 under setting [1] is 29.1 µM [falling, single point]. Same read-out and setting: for `O=c1[nH]c(/C=C\c2cccnc2)c([N+](=O)[O-])c(=O)[nH]1` the value was 35.5 µM [falling, single point]; for `COc1ccccc1C(=O)NC1CCCc2ccccc21` (stereo not drawn), 8.91 µM [rising, partial curve, poor fit]. The same measure, in the same setting: for `CCOC(=O)C(O)(NC(=O)c1cccnc1)C(F)(F)F` (stereo not drawn) the value was 2.31 µM [rising, full curve, poor fit]; for `COc1ccc(C2c3[nH]c4ccccc4c3CCN2C(=O)c2ccccc2C(C)=O)c(F)c1` (stereo not drawn), 11.2 µM [falling, partial curve]; for `COc1ccc(C(=O)NCc2ccc3c(c2)OCO3)c(OC)c1`, 3.55 µM [falling, partial curve, poor fit]. Still for that read-out and setting: for `COC(=O)c1c(NC(=O)CSc2ncn[nH]2)sc(C)c1C` the value was 23.1 µM [falling, partial curve, poor fit]; for `COC(=O)c1ccccc1S(=O)(=O)N1CCC(C(=O)N(C)CCOc2ccccc2)CC1`, 29.1 µM [rising, single point]. On to `O=c1cc(C(F)(F)F)[nH]c2c(OC(F)(F)F)cccc12`, for which, under setting [1], the half-maximal activity concentration (AC50) is 35.5 µM [falling, single point].

In the case of `Cc1cccc(/C(N)=N/OC(=O)CCCN2C(=O)c3ccccc3C2=O)c1`, the AC50 under setting [1] was 5.62 µM [rising, single point]. The same measure, in the same setting: next, `Cc1nc2ccccn2c1P(=Nc1ccccc1)(N(C)C)N(C)C`: 1.58 µM [rising, partial curve, poor fit]; `CCc1nn(CC(=O)Nc2ccc(Br)c(C)c2)c(=N)s1`: 35.5 µM [falling, single point].

With `O=C(Nc1c(Cl)cccc1Cl)C1CCC1`, the AC50 under setting [1] is 0.708 µM [falling, partial curve, poor fit].
